Data taken from article PMC5606850, “Acidic C-terminal domains autoregulate the RNA chaperone Hfq” (eLife, 2017).
Weaker means in comparison with the reference protein, sequence or condition of that experiment. The exact form of at least one protein or probe is not confirmed. At least one verdict rests on a figure or table, not on a statement of the authors.

Key:
[1] = target: Hfq102 (wild-type Hfq) (Escherichia coli) (UniProt P0A6X3); test: competition with a labelled probe; settings: CTD-FITC competition: 50 mM Tris-HCl pH 7.5, 30 C, pUC19 EMSA: 40 mM Tris-HCl pH 7.5, 0.14 mM EDTA, 35 mM NH4Cl, 3.7% glycerol, 25 C (competition legend 30 C), recombinant protein, residues 1-102, protein details: untagged
[2] = target: Hfq65 (Hfq core, CTD deleted) (Escherichia coli) (UniProt P0A6X3); test: competition with a labelled probe; settings: CTD-FITC competition: 50 mM Tris-HCl pH 7.5, 30 C, pUC19 EMSA: 40 mM Tris-HCl pH 7.5, 0.14 mM EDTA, 35 mM NH4Cl, 3.7% glycerol, 25 C (competition legend 30 C), recombinant protein, residues 1-65, protein details: untagged
[3] = displaces CTD-FITC peptide, short oligomers poorer than sRNAs
[4] = 400 nM DNA2 displaces remaining D16-FAM RNA, single-stranded DNA

CUUCCGUCCAUUUCGGACG [minRCRB]
binding result ([1]; vs pUC19 EMSA, weak, 5' Thiol-C6): binds more weakly

GUGGUCAGUCGAGUGGAAAAAAAAAAAAAAAAAA [Target-A18]
binding result [2, 3]: binds more weakly

GUGGUCAGUCGAGUGGUUUUUU [Target-U6]
binding result [2, 3]: binds more weakly

AAAAAAAAAAAAAAAAAA [A18]
binding result [2, 3]: binds more weakly

TTTTTCAAACTGCGGATGAGACCACATATGTATATCTCCTTCTTAAAGTTAAAC (double strand) [dsDNA2]
binding result ([2]; displaces CTD-FITC peptide, weaker than length trend, letters put together from the description): binds more weakly

TATCCGTATGACGTTCCGGACTATGCGGCTAAGGGGCAATCTTTAC [DNA1]
binding result ([1]; vs pUC19 EMSA, weak, folded or branched DNA): binds more weakly

GUGGUCAGUCGAGUGG [Target]
binding result ([1]; vs pUC19 EMSA, poor): binds more weakly | binding result [2, 3]: binds more weakly

TTTTTCAAACTGCGGATGAGACCACATATGTATATCTCCTTCTTAAAGTTAAAC [DNA2]
binding result [1, 4]: binds | binding result [2, 4]: binds | binding result ([2]; displaces CTD-FITC peptide, DNA oligomers poorer than sRNAs, single-stranded DNA): binds more weakly
